Source: patent US20060141569A1, “Compositions and methods for the assay of G-protein coupled receptors and their ligands” (priority 2004, published 2006)
Results are given in words; binding and its absence hold for the method and conditions named. Some binding calls cover weakened binding; strength is not graded here.

Chains of the proteins cited; added tags and fusions are not shown. Lines headed by an entry give the natural chain unless they say otherwise; changes in a name come on top. A line that says so, or that is headed by a name, gives the form on record, which may keep a tag or linker. Residues count along the entry.
UniProt P25025: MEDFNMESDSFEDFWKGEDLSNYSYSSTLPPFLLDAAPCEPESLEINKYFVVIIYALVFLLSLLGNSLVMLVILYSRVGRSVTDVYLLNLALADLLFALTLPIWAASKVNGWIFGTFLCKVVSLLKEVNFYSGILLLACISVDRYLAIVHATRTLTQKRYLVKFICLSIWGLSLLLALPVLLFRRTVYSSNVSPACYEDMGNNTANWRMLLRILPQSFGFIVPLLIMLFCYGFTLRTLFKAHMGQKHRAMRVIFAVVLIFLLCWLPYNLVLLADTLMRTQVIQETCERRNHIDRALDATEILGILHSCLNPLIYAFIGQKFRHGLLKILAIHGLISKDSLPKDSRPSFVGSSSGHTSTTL
CXCR2 encoded by the expression vector pHS, in CHEM-1 cells (P25025, form named): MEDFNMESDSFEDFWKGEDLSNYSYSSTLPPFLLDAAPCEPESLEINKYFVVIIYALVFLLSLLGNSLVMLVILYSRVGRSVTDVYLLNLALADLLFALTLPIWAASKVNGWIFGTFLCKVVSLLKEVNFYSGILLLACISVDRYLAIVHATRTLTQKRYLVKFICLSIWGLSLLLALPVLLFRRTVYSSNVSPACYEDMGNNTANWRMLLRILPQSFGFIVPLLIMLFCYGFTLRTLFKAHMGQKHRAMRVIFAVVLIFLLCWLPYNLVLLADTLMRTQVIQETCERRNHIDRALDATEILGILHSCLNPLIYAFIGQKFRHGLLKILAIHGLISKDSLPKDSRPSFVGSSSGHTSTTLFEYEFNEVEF
UniProt P09341, residues 35-107: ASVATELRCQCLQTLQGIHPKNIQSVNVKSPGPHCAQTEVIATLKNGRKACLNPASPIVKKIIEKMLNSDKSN

Assays:
[1] = target: CXCR2 encoded by the mammalian expression vector pcDNA3, in CHO cells (UniProt P25025); experiment: competition against 125I-Groα, CHO membranes
[2] = target: CXCR2 encoded by the expression vector pHS, in CHEM-1 cells (UniProt P25025); experiment: competition against 125I-Groα, one site curve, FIG. 8B (CHEM-1/pHS membranes)
[3] = target: CXCR2 encoded by the expression vector pHS, in CHEM-1 cells (UniProt P25025); experiment: competition against 125I-Groα, CHEM-1 membranes

binding [1]: binds
binding [2]: binds
binding [3]: binds
Substance: cold ligand Groα (from UniProt P09341 35-107)
